The list shows a part of the results.
Compound: Cc1cc(ccc1-c1ccccc1)C(=O)N1CCCN(CC1)C(=O)CCl [compound 10]
Experiment: probe-labelled cysteine peptide fold change vs DMSO (competition) (log2 fold change); higher = less target engagement (more negative = stronger competition)
Conditions: THP-1, incubation time: 4 h
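Also: competitive profiling in live THP-1 cells: cysteine peptides tagged with an iodoacetamide desthiobiotin (IA-DTB) probe, intensity after compound treatment relative to DMSO-treated cells.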

Sequences of proteins named here, by UniProt entry; tags and fusion partners are left off. A change or cut given only in a name is not applied to a line headed by its entry.
UniProt Q5JTJ3: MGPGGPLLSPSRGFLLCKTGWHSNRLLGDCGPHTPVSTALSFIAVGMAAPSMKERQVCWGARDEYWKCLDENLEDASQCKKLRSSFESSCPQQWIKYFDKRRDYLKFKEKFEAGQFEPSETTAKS
UniProt P53621: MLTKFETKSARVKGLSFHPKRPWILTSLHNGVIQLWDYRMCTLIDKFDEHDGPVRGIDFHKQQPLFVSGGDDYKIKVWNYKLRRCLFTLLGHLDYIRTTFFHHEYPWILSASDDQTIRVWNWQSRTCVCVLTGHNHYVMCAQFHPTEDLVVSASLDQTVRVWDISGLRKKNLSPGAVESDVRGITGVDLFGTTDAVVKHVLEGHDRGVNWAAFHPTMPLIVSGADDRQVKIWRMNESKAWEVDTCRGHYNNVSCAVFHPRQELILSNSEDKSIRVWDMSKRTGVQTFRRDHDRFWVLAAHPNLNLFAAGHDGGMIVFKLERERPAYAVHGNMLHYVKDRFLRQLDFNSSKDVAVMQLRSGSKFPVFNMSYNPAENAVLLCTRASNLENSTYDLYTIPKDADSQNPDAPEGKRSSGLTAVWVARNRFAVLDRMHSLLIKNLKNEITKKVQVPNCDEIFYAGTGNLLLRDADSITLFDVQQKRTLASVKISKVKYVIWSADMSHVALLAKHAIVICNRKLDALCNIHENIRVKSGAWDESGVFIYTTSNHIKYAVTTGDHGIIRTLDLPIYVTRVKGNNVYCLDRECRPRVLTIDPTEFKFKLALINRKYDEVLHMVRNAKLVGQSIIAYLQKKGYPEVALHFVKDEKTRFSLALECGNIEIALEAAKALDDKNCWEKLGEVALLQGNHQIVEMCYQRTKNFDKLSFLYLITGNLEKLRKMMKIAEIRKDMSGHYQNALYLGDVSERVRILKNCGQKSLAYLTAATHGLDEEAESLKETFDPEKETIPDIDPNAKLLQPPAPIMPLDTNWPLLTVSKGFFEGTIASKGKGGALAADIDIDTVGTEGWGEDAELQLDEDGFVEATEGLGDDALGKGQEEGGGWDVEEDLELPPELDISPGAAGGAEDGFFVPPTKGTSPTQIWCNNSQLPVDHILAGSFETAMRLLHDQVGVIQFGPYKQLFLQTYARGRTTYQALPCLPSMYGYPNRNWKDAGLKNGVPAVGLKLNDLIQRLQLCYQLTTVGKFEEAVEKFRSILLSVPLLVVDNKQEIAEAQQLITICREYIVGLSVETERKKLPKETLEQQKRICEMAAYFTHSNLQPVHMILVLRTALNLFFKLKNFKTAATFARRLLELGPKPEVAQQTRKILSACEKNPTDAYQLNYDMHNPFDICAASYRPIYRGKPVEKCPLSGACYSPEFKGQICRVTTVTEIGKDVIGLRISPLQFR
UniProt Q9Y2B0: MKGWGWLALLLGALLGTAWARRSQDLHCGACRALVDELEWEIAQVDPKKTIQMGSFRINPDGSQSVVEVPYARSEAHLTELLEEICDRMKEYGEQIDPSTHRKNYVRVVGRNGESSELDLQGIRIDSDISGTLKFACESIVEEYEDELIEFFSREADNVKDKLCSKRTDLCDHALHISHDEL
UniProt Q9H9Q2: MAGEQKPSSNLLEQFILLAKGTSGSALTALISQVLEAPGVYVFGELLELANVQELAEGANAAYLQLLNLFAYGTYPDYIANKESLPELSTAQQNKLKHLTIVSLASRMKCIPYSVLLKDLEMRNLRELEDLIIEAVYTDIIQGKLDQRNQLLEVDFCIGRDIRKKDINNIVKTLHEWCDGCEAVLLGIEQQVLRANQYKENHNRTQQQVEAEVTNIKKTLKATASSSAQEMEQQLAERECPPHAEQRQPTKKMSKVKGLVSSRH
UniProt Q9Y678: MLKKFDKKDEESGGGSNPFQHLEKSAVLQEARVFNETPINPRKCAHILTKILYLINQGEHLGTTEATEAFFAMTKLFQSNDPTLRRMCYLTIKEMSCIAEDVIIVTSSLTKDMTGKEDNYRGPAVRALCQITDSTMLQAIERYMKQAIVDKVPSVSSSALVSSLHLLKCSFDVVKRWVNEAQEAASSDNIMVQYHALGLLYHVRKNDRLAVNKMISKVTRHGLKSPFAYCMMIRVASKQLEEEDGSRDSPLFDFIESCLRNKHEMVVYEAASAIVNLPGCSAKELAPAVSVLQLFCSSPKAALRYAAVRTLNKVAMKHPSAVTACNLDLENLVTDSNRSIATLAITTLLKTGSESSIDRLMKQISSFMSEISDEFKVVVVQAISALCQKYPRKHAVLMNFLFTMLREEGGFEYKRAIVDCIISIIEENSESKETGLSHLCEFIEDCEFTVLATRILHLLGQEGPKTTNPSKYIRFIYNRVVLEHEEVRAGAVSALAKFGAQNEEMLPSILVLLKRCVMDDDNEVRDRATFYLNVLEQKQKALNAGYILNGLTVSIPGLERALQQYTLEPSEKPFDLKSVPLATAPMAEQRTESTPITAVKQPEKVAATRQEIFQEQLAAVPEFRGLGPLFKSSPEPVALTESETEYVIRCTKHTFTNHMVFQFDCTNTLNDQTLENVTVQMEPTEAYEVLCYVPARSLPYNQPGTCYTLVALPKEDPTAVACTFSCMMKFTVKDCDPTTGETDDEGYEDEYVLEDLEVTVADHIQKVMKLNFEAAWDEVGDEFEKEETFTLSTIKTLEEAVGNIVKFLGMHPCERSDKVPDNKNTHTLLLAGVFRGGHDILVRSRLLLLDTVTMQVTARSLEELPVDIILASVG
UniProt P62633: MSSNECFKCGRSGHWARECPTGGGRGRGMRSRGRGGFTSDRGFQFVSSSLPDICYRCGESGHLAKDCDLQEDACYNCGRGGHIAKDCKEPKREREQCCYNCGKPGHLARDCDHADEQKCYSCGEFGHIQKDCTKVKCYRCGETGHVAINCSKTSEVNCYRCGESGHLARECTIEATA
UniProt O75208: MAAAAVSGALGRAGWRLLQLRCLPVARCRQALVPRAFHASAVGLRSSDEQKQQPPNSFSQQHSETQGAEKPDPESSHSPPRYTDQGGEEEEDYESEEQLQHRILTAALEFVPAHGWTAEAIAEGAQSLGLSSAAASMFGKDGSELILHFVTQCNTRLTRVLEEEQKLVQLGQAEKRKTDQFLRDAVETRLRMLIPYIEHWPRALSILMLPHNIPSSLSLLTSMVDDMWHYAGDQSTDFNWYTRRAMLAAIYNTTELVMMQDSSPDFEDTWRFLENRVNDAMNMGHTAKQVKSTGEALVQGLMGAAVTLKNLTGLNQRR
UniProt Q5EBM0: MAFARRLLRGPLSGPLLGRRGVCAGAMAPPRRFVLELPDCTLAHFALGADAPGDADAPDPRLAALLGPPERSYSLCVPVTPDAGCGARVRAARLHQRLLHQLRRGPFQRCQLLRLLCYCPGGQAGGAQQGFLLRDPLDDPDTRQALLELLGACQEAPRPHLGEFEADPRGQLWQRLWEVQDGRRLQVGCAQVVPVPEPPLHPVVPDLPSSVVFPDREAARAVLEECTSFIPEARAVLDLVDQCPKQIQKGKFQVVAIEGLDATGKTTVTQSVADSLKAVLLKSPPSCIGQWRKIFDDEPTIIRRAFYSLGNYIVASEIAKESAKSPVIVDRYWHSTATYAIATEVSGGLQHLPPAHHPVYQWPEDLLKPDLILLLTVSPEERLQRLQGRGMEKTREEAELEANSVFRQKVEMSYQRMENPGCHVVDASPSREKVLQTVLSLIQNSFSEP
UniProt Q9UFF9, whole entry: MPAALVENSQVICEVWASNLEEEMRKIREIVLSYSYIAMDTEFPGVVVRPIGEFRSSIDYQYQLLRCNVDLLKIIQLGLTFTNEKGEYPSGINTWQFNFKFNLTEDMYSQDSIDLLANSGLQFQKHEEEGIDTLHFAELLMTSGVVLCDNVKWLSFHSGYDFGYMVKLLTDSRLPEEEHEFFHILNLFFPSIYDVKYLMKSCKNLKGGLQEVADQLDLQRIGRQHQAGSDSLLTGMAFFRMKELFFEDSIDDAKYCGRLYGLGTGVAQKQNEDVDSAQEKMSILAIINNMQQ
UniProt Q9UBF2: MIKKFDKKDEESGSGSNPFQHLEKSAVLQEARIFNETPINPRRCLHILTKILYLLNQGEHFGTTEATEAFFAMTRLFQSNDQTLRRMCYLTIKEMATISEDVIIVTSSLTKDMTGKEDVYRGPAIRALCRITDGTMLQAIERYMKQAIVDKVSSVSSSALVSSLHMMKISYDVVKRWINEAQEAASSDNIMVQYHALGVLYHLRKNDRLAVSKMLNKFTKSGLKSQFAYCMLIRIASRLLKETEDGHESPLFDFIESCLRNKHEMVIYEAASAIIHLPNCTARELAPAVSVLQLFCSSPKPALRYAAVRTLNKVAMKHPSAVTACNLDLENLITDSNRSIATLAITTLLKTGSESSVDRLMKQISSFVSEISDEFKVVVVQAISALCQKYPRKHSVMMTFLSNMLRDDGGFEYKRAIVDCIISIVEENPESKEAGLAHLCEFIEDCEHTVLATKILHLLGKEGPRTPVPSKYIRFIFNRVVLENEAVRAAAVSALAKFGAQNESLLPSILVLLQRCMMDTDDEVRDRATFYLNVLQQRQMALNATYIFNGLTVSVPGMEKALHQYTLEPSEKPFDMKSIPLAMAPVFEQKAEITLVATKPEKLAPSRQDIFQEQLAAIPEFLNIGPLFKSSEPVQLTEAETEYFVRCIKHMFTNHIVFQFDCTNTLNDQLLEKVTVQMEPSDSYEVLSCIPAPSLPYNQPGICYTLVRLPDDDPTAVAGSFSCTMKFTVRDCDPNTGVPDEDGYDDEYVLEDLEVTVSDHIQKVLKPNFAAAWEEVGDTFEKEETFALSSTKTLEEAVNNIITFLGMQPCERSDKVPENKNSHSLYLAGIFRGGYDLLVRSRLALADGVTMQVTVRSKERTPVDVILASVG
UniProt Q86VU5: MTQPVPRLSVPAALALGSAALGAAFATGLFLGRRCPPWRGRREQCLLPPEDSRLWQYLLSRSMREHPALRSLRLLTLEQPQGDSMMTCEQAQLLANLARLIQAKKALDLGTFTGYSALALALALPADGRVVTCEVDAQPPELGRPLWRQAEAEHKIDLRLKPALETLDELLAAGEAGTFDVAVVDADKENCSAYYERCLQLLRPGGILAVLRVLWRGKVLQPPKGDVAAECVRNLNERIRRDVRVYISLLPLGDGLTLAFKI
UniProt P21964: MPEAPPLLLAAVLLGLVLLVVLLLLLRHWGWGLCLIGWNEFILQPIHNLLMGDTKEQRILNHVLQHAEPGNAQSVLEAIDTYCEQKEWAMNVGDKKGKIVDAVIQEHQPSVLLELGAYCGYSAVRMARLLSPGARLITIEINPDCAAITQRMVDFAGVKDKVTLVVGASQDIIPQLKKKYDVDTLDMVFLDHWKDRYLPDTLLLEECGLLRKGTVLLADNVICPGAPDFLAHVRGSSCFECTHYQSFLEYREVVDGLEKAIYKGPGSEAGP
UniProt Q96MW5: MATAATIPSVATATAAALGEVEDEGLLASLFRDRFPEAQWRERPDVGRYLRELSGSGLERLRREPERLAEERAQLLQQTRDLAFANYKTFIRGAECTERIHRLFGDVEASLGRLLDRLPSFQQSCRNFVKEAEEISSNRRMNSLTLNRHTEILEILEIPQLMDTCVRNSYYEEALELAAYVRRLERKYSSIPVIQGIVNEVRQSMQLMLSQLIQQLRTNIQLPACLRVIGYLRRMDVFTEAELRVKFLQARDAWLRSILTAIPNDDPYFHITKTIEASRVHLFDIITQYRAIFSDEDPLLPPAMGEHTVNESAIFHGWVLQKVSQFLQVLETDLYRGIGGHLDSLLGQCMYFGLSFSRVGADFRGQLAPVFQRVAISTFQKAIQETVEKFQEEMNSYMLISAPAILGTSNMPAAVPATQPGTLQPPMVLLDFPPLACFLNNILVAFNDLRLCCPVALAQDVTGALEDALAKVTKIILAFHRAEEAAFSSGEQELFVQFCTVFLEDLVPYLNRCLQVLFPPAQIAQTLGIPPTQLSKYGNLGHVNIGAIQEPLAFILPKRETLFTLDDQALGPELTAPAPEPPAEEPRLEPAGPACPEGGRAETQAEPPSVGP
UniProt Q9Y2V7: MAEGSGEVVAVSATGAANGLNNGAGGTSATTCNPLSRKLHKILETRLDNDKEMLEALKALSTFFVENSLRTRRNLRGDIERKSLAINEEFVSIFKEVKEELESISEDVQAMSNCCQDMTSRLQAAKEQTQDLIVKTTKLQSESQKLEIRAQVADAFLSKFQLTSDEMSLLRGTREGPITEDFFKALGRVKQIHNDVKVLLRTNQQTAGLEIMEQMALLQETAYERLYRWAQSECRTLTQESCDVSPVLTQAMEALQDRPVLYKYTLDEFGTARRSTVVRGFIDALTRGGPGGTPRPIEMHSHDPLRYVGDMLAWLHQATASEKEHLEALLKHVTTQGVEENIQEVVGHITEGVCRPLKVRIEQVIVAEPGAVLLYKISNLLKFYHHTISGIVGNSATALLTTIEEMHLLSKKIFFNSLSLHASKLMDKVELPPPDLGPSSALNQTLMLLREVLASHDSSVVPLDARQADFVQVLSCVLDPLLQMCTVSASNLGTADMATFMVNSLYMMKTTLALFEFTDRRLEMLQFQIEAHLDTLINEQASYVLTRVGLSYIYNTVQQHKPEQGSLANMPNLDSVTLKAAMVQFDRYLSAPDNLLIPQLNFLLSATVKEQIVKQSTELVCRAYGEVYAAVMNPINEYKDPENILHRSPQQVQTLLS

**Q.** Which results are given for “COPS4_Q9BT78_70_QLLTDFCTHLPNLPDSTAK (UniProt Q9BT78)”?
**A.** probe-labelled cysteine peptide fold change (10 µM): 0.204; probe-labelled cysteine peptide fold change (50 µM): 0.203

**Q.** Which results are given for “CORO1A_P31146_195_DGGLICTSCR (UniProt P31146)”?
**A.** probe-labelled cysteine peptide fold change (10 µM): 0.143; probe-labelled cysteine peptide fold change (50 µM): -0.057

**Q.** Which results are given for “COA6_Q5JTJ3_79_CLDENLEDASQCK (UniProt Q5JTJ3)”?
**A.** probe-labelled cysteine peptide fold change (10 µM): -0.00398; probe-labelled cysteine peptide fold change (50 µM): 0.0284

**Q.** Which “probe-labelled cysteine peptide fold change” value (10 µM) does the source give for “COPA_P53621_655_FSLALECGNIEIALEAAK (UniProt P53621)” here?
**A.** The value was 0.269.

**Q.** And the “probe-labelled cysteine peptide fold change” value (50 µM)?
**A.** Its value is 0.264.

**Q.** Which “probe-labelled cysteine peptide fold change” value (10 µM) does the source give for “CNPY2_Q9Y2B0_171_RTDLCDHALHISHDEL (UniProt Q9Y2B0)” here?
**A.** The value was 0.0561.

**Q.** What about the “probe-labelled cysteine peptide fold change” value (50 µM) of the same target?
**A.** The value was 0.205.

**Q.** How did the “probe-labelled cysteine peptide fold change” value (10 µM) turn out when “COPS7B_Q9H9Q2_240_ECPPHAEQR (UniProt Q9H9Q2)” was run?
**A.** Its value is -0.141.

**Q.** What about the “probe-labelled cysteine peptide fold change” value (50 µM) of the same target?
**A.** Its value is 0.0612.

**Q.** How did the “probe-labelled cysteine peptide fold change” value (10 µM) turn out when “COPG1_Q9Y678_44_CAHILTK (UniProt Q9Y678)” was run?
**A.** The value was -0.0131.

**Q.** What about the “probe-labelled cysteine peptide fold change” value (50 µM) of the same target?
**A.** The value was -0.101.

**Q.** How did the “probe-labelled cysteine peptide fold change” value (10 µM) turn out when “COPG1_Q9Y678_169_CSFDVVKR (UniProt Q9Y678)” was run?
**A.** Its value is -0.119.

**Q.** What about the “probe-labelled cysteine peptide fold change” value (50 µM) of the same target?
**A.** The value was -0.189.

**Q.** Which “probe-labelled cysteine peptide fold change” value (10 µM) does the source give for “CNBP_P62633_97+98+101_EQCCYNCGKPGHLAR (UniProt P62633)” here?
**A.** Its value is -0.244.

**Q.** What about the “probe-labelled cysteine peptide fold change” value (50 µM) of the same target?
**A.** The value was -0.799.

**Q.** With “COQ9_O75208_153_DGSELILHFVTQCNTR (UniProt O75208)” as the target, how does the “probe-labelled cysteine peptide fold change” value (10 µM) read?
**A.** The value was 0.0842.

**Q.** What about the “probe-labelled cysteine peptide fold change” value (50 µM) of the same target?
**A.** The value was 0.187.

**Q.** How did the “probe-labelled cysteine peptide fold change” value (10 µM) turn out when “CMPK2_Q5EBM0_40_FVLELPDCTLAHFALGADAPGDADAPDPR (UniProt Q5EBM0)” was run?
**A.** Its value is 0.103.

**Q.** And the “probe-labelled cysteine peptide fold change” value (50 µM)?
**A.** The value was 0.123.

**Q.** Which results are given for “COLGALT1_Q8NBJ5_369_ALQAQEIECR (UniProt Q8NBJ5)”?
**A.** probe-labelled cysteine peptide fold change (10 µM): 0.0256; probe-labelled cysteine peptide fold change (50 µM): 0.125

**Q.** Which “probe-labelled cysteine peptide fold change” value (10 µM) does the source give for “COPG1_Q9Y678_280_NKHEMVVYEAASAIVNLPGCSAK (UniProt Q9Y678)” here?
**A.** Its value is -0.00816.

**Q.** What about the “probe-labelled cysteine peptide fold change” value (50 µM) of the same target?
**A.** Its value is -0.0912.

**Q.** For “CNOT8_Q9UFF9_148_HEEEGIDTLHFAELLMTSGVVLCDNVK (UniProt Q9UFF9)”, which “probe-labelled cysteine peptide fold change” value (10 µM) is on record?
**A.** The value was 0.46.

**Q.** What about the “probe-labelled cysteine peptide fold change” value (50 µM) of the same target?
**A.** Its value is 0.659.

**Q.** What does the source list for “CMPK2_Q5EBM0_422_MENPGCHVVDASPSR (UniProt Q5EBM0)”?
**A.** probe-labelled cysteine peptide fold change (10 µM): -0.101; probe-labelled cysteine peptide fold change (50 µM): 0.0513

**Q.** How did the “probe-labelled cysteine peptide fold change” value (10 µM) turn out when “CNOT2_Q9NZN8_408_FASPWASSPCRPQDIDFHVPSEYLTNIHIR (UniProt Q9NZN8)” was run?
**A.** Its value is -0.067.

**Q.** What about the “probe-labelled cysteine peptide fold change” value (50 µM) of the same target?
**A.** Its value is 0.245.

**Q.** Which results are given for “COLGALT1_Q8NBJ5_203_AAYSNFWCGMTSQGYYKR (UniProt Q8NBJ5)”?
**A.** probe-labelled cysteine peptide fold change (10 µM): -0.193; probe-labelled cysteine peptide fold change (50 µM): -0.51

**Q.** Which results are given for “COPG2_Q9UBF2_230_SQFAYCMLIR (UniProt Q9UBF2)”?
**A.** probe-labelled cysteine peptide fold change (10 µM): -0.504; probe-labelled cysteine peptide fold change (50 µM): 0.323

**Q.** Which “probe-labelled cysteine peptide fold change” value (10 µM) does the source give for “COMTD1_Q86VU5_191_ENCSAYYER (UniProt Q86VU5)” here?
**A.** The value was 0.025.

**Q.** And the “probe-labelled cysteine peptide fold change” value (50 µM)?
**A.** The value was 0.206.

**Q.** Which results are given for “COPA_P53621_453_KVQVPNCDEIFYAGTGNLLLR (UniProt P53621)”?
**A.** probe-labelled cysteine peptide fold change (10 µM): -0.249; probe-labelled cysteine peptide fold change (50 µM): 0.0498

**Q.** For “COPA_P53621_580_GNNVYCLDR (UniProt P53621)”, which “probe-labelled cysteine peptide fold change” value (10 µM) is on record?
**A.** Its value is 0.134.

**Q.** What about the “probe-labelled cysteine peptide fold change” value (50 µM) of the same target?
**A.** The value was -0.0303.

**Q.** With “COMT_P21964_207_DRYLPDTLLLEECGLLR (UniProt P21964)” as the target, how does the “probe-labelled cysteine peptide fold change” value (10 µM) read?
**A.** Its value is 0.0569.

**Q.** And the “probe-labelled cysteine peptide fold change” value (50 µM)?
**A.** The value was 0.158.

**Q.** Which results are given for “COMT_P21964_83_ILNHVLQHAEPGNAQSVLEAIDTYCEQK (UniProt P21964)”?
**A.** probe-labelled cysteine peptide fold change (10 µM): -0.119; probe-labelled cysteine peptide fold change (50 µM): 0.0476

**Q.** For “COG8_Q96MW5_595_LEPAGPACPEGGR (UniProt Q96MW5)”, which “probe-labelled cysteine peptide fold change” value (10 µM) is on record?
**A.** Its value is -0.172.

**Q.** And the “probe-labelled cysteine peptide fold change” value (50 µM)?
**A.** Its value is 0.233.

**Q.** Which “probe-labelled cysteine peptide fold change” value (10 µM) does the source give for “CNBP_P62633_119+122_CYSCGEFGHIQK (UniProt P62633)” here?
**A.** Its value is -0.085.

**Q.** What about the “probe-labelled cysteine peptide fold change” value (50 µM) of the same target?
**A.** Its value is -0.174.

**Q.** How did the “probe-labelled cysteine peptide fold change” value (10 µM) turn out when “COQ8A_Q8NI60_641_AMFEEAYSNYCK (UniProt Q8NI60)” was run?
**A.** Its value is -0.0518.

**Q.** What about the “probe-labelled cysteine peptide fold change” value (50 µM) of the same target?
**A.** The value was 0.0597.

**Q.** What does the source list for “CMTR1_Q8N1G2_191_KMIIEDETEFCGEELLHSVLQCK (UniProt Q8N1G2)”?
**A.** probe-labelled cysteine peptide fold change (10 µM): 0.0946; probe-labelled cysteine peptide fold change (50 µM): -0.208

**Q.** Which “probe-labelled cysteine peptide fold change” value (10 µM) does the source give for “CNN2_Q99439_215_CASQVGMTAPGTRR (UniProt Q99439)” here?
**A.** Its value is -0.353.

**Q.** What about the “probe-labelled cysteine peptide fold change” value (50 µM) of the same target?
**A.** Its value is -0.955.

**Q.** “COPA_P53621_245_AWEVDTCR (UniProt P53621)” was tested. Which “probe-labelled cysteine peptide fold change” value (10 µM) did it give?
**A.** Its value is -0.0547.

**Q.** And the “probe-labelled cysteine peptide fold change” value (50 µM)?
**A.** Its value is -0.053.

**Q.** Which results are given for “CNDP2_Q96KP4_222_GICYFFIEVECSNK (UniProt Q96KP4)”?
**A.** probe-labelled cysteine peptide fold change (10 µM): 0.0266; probe-labelled cysteine peptide fold change (50 µM): 0.833

**Q.** With “CNBP_P62633_122_CYSCGEFGHIQK (UniProt P62633)” as the target, how does the “probe-labelled cysteine peptide fold change” value (10 µM) read?
**A.** The value was 0.0889.

**Q.** What about the “probe-labelled cysteine peptide fold change” value (50 µM) of the same target?
**A.** Its value is 0.0765.

**Q.** “COG6_Q9Y2V7_354_HVTTQGVEENIQEVVGHITEGVCRPLK (UniProt Q9Y2V7)” was tested. Which “probe-labelled cysteine peptide fold change” value (10 µM) did it give?
**A.** The value was 0.0919.

**Q.** And the “probe-labelled cysteine peptide fold change” value (50 µM)?
**A.** Its value is 0.17.

**Q.** Which “probe-labelled cysteine peptide fold change” value (10 µM) does the source give for “COPA_P53621_380_FPVFNMSYNPAENAVLLCTR (UniProt P53621)” here?
**A.** Its value is 0.0442.

**Q.** And the “probe-labelled cysteine peptide fold change” value (50 µM)?
**A.** Its value is 0.139.

**Q.** For “CNBP_P62633_57_CGESGHLAK (UniProt P62633)”, which “probe-labelled cysteine peptide fold change” value (10 µM) is on record?
**A.** The value was 0.0688.

**Q.** What about the “probe-labelled cysteine peptide fold change” value (50 µM) of the same target?
**A.** The value was -0.0367.

**Q.** What does the source list for “COPG1_Q9Y678_813_FLGMHPCER (UniProt Q9Y678)”?
**A.** probe-labelled cysteine peptide fold change (10 µM): 0.00203; probe-labelled cysteine peptide fold change (50 µM): -0.0568
